In paper PMC7332293:
Results are given in words; binding and its absence hold for the method and conditions named. In cells and extracts the contact can be indirect. These calls come from enrichment with a bait or labelling near it, and not all partners need be listed. For some assays here: Tags and fused reporters may be left off the sequences shown.

Chains of the proteins cited; added tags and fusions are not shown.
UniProt Q99942: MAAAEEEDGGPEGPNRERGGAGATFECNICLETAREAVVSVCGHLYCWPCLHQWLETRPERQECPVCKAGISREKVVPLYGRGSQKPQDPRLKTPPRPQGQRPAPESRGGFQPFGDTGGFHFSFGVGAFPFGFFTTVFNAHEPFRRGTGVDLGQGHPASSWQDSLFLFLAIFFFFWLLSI
UniProt P55061: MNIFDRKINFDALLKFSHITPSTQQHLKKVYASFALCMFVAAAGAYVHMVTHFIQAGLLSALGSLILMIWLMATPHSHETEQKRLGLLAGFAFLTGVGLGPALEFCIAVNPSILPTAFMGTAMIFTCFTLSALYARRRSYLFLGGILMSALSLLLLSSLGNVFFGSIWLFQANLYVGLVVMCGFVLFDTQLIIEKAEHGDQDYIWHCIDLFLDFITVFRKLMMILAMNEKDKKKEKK
UniProt Q4ZIN3: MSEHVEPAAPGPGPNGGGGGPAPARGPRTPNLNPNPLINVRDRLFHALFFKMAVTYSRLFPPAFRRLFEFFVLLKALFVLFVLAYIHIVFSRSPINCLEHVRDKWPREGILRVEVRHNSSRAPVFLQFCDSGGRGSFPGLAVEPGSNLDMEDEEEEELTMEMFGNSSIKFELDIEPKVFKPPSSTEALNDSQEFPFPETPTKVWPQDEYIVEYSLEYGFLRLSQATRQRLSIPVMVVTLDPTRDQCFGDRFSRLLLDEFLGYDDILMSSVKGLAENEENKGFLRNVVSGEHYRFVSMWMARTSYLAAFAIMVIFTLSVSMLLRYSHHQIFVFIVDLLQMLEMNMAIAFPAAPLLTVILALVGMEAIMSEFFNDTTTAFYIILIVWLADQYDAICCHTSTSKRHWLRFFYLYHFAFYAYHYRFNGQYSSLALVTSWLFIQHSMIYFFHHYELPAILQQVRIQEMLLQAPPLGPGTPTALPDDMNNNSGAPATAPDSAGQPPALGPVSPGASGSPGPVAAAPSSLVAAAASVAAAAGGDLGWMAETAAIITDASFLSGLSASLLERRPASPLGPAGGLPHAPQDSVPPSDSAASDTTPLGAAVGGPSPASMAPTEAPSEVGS
UniProt Q71RG4: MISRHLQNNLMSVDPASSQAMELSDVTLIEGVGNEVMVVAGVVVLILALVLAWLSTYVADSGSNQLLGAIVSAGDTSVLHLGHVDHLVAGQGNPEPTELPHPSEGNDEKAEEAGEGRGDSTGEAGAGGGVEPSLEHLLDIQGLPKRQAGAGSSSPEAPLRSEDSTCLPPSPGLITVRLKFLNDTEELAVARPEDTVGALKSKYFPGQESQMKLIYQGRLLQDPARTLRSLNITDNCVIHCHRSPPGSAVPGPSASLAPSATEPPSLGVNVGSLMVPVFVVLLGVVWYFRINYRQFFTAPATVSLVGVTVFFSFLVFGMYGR

What was measured:
Assay in all cases: affinity purification with mass spectrometry; FLAG-HA-tagged E3 induced with DOX in stable Flp-In293 cells; lysates in 1% LMNG (150 mM NaCl, 50 mM Tris-HCl pH 7.4, 5 mM EDTA); anti-FLAG agarose, 2 hr; eluted with SDS; LC-MS/MS; HCIPs by BSCG and SINQ analysis
[1] = biological target: T1, FH-RNF185 (human) (UniProt Q96GF1)
T1 sequence: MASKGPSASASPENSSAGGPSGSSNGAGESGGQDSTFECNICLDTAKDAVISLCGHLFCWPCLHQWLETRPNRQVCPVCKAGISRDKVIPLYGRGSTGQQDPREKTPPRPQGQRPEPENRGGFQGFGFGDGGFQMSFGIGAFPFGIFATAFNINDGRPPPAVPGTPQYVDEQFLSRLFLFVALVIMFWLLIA

[2] = biological target: T2, FLAG-HA-tagged RNF170 (human) (UniProt Q96K19)
T2 sequence: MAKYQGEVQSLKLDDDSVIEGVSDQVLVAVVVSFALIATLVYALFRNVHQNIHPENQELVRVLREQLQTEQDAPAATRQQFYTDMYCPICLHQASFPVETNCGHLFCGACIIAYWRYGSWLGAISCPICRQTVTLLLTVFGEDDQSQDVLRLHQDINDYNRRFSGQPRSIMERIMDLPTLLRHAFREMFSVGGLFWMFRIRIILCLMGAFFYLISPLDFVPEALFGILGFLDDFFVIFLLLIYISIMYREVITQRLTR

[3] = biological target: FLAG-HA-tagged RNF5 (human) (UniProt Q99942)
[4] = biological target: T3, FLAG-HA-tagged MARCH4 (human) (UniProt Q9P2E8)
T3 sequence: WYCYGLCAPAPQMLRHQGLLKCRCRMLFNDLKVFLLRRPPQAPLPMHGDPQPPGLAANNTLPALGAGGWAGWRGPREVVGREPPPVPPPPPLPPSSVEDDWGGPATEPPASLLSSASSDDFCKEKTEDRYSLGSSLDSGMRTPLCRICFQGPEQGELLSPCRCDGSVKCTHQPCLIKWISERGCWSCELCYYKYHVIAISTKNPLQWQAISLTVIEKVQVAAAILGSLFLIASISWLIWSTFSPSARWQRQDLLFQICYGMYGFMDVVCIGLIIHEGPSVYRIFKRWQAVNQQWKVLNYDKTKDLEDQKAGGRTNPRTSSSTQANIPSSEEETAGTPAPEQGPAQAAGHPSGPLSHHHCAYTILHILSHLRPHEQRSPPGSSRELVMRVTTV

Q: With “RNF5 (endogenous, found as HCIP) (from UniProt Q99942 1-180) (enzyme)” as the substance, how does the binding [1] read?
A: binds

Q: How did the binding [2] turn out when “TMBIM6/BI-1/Bax-inhibitor 1 (from UniProt P55061 1-237)” was run?
A: binds

Q: What about the binding [1] of the same substance?
A: binds

Q: For “TMEM259/Membralin (endogenous) (from UniProt Q4ZIN3 1-620)”, which binding [1] is on record?
A: binds

Q: With TMUB2 (from UniProt Q71RG4 1-321) as the substance, how does the binding [1] read?
A: binds

Q: How did the binding [1] turn out when “VCP/p97 (from UniProt P55072 1-806) (enzyme)” was run?
A: binds

Q: And the binding [3]?
A: binds

Q: What about the binding [4] of the same substance?
A: binds
